Reference: PMC12811253
Results are given in words; binding and its absence hold for the method and conditions named. Binding seen in cells or lysates may run through a third protein. Some results given as binding are weak or reduced against the parent protein; the word gives no strength. For some assays here: Tags and fused reporters may be left off the sequences shown.

The chains behind the UniProt entries cited, without tags or fusion partners.
UniProt P53396: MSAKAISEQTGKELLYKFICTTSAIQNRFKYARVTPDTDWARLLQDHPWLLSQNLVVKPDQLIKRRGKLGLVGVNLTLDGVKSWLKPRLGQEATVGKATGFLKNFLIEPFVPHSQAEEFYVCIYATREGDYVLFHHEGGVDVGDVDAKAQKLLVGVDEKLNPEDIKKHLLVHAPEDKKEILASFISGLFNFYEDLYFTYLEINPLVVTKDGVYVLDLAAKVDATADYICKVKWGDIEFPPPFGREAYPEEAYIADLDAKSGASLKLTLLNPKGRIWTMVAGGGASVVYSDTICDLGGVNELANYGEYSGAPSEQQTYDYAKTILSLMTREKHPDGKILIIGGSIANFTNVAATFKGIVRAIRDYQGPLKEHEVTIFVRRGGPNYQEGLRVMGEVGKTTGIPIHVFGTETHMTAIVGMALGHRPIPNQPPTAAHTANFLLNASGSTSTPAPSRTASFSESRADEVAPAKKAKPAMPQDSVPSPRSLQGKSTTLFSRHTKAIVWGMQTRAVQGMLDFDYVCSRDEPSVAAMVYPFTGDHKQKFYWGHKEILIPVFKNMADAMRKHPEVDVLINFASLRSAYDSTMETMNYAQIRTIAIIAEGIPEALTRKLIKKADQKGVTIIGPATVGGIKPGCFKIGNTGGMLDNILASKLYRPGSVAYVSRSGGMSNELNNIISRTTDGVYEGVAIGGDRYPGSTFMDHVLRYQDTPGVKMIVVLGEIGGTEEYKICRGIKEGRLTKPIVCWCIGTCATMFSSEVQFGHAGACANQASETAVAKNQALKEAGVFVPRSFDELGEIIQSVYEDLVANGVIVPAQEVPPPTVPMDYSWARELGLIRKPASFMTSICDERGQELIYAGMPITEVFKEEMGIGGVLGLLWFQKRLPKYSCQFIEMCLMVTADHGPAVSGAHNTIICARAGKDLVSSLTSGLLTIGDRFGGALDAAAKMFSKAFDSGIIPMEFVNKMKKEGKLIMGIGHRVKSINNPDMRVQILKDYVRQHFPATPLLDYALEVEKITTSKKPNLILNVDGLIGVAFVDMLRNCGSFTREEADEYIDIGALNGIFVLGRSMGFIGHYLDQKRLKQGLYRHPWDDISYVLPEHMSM

B1: ubiquitin-specific protease 13 (USP13), endogenous (enzyme, UniProt Q92995 1-863)
chain: MQRRGALFGMPGGSGGRKMAAGDIGELLVPHMPTIRVPRSGDRVYKNECAFSYDSPNSEGGLYVCMNTFLAFGREHVERHFRKTGQSVYMHLKRHVREKVRGASGGALPKRRNSKIFLDLDTDDDLNSDDYEYEDEAKLVIFPDHYEIALPNIEELPALVTIACDAVLSSKSPYRKQDPDTWENELPVSKYANNLTQLDNGVRIPPSGWKCARCDLRENLWLNLTDGSVLCGKWFFDSSGGNGHALEHYRDMGYPLAVKLGTITPDGADVYSFQEEEPVLDPHLAKHLAHFGIDMLHMHGTENGLQDNDIKLRVSEWEVIQESGTKLKPMYGPGYTGLKNLGNSCYLSSVMQAIFSIPEFQRAYVGNLPRIFDYSPLDPTQDFNTQMTKLGHGLLSGQYSKPPVKSELIEQVMKEEHKPQQNGISPRMFKAFVSKSHPEFSSNRQQDAQEFFLHLVNLVERNRIGSENPSDVFRFLVEERIQCCQTRKVRYTERVDYLMQLPVAMEAATNKDELIAYELTRREAEANRRPLPELVRAKIPFSACLQAFSEPENVDDFWSSALQAKSAGVKTSRFASFPEYLVVQIKKFTFGLDWVPKKFDVSIDMPDLLDINHLRARGLQPGEEELPDISPPIVIPDDSKDRLMNQLIDPSDIDESSVMQLAEMGFPLEACRKAVYFTGNMGAEVAFNWIIVHMEEPDFAEPLTMPGYGGAASAGASVFGASGLDNQPPEEIVAIITSMGFQRNQAIQALRATNNNLERALDWIFSHPEFEEDSDFVIEMENNANANIISEAKPEGPRVKDGSGTYELFAFISHMGTSTMSGHYICHIKKEGRWVIYNDHKVCASERPPKDLGYMYFYRRIPS
B2: Flag-USP13 deletion mutant: USP domain (domain or fragment, UniProt Q92995 336-861)
chain: TGLKNLGNSCYLSSVMQAIFSIPEFQRAYVGNLPRIFDYSPLDPTQDFNTQMTKLGHGLLSGQYSKPPVKSELIEQVMKEEHKPQQNGISPRMFKAFVSKSHPEFSSNRQQDAQEFFLHLVNLVERNRIGSENPSDVFRFLVEERIQCCQTRKVRYTERVDYLMQLPVAMEAATNKDELIAYELTRREAEANRRPLPELVRAKIPFSACLQAFSEPENVDDFWSSALQAKSAGVKTSRFASFPEYLVVQIKKFTFGLDWVPKKFDVSIDMPDLLDINHLRARGLQPGEEELPDISPPIVIPDDSKDRLMNQLIDPSDIDESSVMQLAEMGFPLEACRKAVYFTGNMGAEVAFNWIIVHMEEPDFAEPLTMPGYGGAASAGASVFGASGLDNQPPEEIVAIITSMGFQRNQAIQALRATNNNLERALDWIFSHPEFEEDSDFVIEMENNANANIISEAKPEGPRVKDGSGTYELFAFISHMGTSTMSGHYICHIKKEGRWVIYNDHKVCASERPPKDLGYMYFYRRI

Columns and labels:
[1] = biological target: ATP citrate lyase (ACLY), endogenous (human (endogenous in LM3)) (UniProt P53396); assay: co-IP; endogenous proteins in LM3 cell lysate; antibody overnight at 4 °C, protein A/G PLUS-Agarose beads, immunoblotting
[2] = biological target: Myc-ACLY, full-length (UniProt P53396); assay: co-IP; HEK293 cells co-transfected with 2 μg Myc-ACLY and full-length or mutant Flag-USP13, 24 h, NP-40 buffer; Myc antibody for co-IP, detection by Flag antibody

| Binder | binding [1] | binding [2] |
| --- | --- | --- |
| B1 | binds |  |
| B2 |  | binds |
